Measured values as given in article PMC11655647.
Results are given in words; binding and its absence hold for the method and conditions named. In cells and extracts the contact can be indirect. These calls come from enrichment with a bait or labelling near it, and not all partners need be listed. Tags and fused reporters may be left off the sequences shown.

Protein sequences, listed by entry. Tags and fused reporters are not part of them. Residues count along the entry.
UniProt P20029, residues 20-655: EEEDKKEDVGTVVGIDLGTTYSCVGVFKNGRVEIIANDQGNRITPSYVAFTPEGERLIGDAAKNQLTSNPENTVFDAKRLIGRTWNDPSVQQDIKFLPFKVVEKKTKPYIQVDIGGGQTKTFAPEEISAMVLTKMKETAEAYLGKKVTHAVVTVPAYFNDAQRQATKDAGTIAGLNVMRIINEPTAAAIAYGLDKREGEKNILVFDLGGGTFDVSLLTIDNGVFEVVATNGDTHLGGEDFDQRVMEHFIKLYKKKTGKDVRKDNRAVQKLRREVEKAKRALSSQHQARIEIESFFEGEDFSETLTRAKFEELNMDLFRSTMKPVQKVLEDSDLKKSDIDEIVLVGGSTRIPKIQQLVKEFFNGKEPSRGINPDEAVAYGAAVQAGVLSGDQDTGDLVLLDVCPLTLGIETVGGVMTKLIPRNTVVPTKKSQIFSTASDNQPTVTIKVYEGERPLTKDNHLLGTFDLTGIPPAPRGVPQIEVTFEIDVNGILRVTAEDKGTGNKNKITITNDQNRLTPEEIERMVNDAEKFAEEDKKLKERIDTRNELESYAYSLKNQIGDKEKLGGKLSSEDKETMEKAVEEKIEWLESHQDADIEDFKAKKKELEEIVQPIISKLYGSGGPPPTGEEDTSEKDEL

Target: T1, mouse GALNTL5 protein tagged with green fluorescent protein (GFP) (mouse) (UniProt Q9D4M9)
T1 sequence: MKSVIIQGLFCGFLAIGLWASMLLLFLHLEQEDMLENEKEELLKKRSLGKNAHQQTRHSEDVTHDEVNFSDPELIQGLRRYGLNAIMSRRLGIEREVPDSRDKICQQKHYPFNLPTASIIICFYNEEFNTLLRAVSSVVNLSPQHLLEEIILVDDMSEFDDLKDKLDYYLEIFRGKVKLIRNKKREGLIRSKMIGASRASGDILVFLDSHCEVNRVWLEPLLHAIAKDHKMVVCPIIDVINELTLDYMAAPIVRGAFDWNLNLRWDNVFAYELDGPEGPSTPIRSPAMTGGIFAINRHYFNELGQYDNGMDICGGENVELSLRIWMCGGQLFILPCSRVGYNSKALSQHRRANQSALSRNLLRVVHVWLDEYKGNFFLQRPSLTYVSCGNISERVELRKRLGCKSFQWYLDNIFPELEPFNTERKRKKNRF
Assay: affinity purification with mass spectrometry; lysates of GALNTL5-GFP/GC-2spd(ts) cells cultured 2 days with cumate; IP with anti-GFP mAb-Magnetic Beads; bands around 75 kDa cut from the SDS-PAGE gel, trypsin digest, MS

Molecule | binding
BiP (GRP78) (mouse, endogenous) (from UniProt P20029 20-655) | binds
calnexin (mouse, endogenous) (protein, UniProt P35564 21-591) HDGHDDDAIDIEDDLDDVIEEVEDSKSKSDASTPPSPKVTYKAPVPTGEVYFADSFDRGSLSGWILSKAKKDDTDDEIAKYDGKWEVDEMKETKLPGDKGLVLMSRAKHHAISAKLNKPFLFDTKPLIVQYEVNFQNGIECGGAYVKLLSKTAELSLDQFHDKTPYTIMFGPDKCGEDYKLHFIFRHKNPKTGVYEEKHAKRPDADLKTYFTDKKTHLYTLILNPDNSFEILVDQSVVNSGNLLNDMTPPVNPSREIEDPEDRKPEDWDERPKIADPDAVKPDDWDEDAPSKIPDEEATKPEGWLDDEPEYIPDPDAEKPEDWDEDMDGEWEAPQIANPKCESAPGCGVWQRPMIDNPNYKGKWKPPMIDNPNYQGIWKPRKIPNPDFFEDLEPFKMTPFSAIGLELWSMTSDIFFDNFIISGDRRVVDDWANDGWGLKKAADGAAEPGVVLQMLEAAEERPWLWVVYILTVALPVFLVILFCCSGKKQSNAMEYKKTDAPQPDVKDEEGKEEEKNKRDEEEEEEKLEEKQKSDAEEDGVTGSQDEEDSKPKAEEDEILNRSPRNRKPRRE | binds
